This is an account of results in PMC8742353.

Sequences of proteins named here, by UniProt entry; tags and fusion partners are left off.
UniProt P25490: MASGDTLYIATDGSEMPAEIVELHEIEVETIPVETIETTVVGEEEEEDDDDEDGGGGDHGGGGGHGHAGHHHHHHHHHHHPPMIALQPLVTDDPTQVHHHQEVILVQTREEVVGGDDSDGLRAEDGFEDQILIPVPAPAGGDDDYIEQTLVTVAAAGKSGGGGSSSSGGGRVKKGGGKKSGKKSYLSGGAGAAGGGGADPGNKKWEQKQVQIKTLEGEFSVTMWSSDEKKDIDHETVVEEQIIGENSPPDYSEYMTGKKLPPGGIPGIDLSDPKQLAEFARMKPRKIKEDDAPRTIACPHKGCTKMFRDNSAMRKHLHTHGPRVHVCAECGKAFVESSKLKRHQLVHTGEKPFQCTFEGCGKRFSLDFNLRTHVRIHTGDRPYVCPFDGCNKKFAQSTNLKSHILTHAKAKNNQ

The assay deals with Yin-Yang 1 (human (endogenous in HCC cells)) (UniProt P25490). Nature of the assay: co-IP; endogenous proteins in HCC cells; normal rabbit IgG and anti-YY1 antibodies used (told under the ChIP heading of the methods); no further conditions given.

These are yes or no findings as the source states them, for the method shown. In cells and extracts the contact can be indirect. Some binding calls cover weakened binding; strength is not graded here.

B1: G-rich sequence binding factor 1 (protein, UniProt Q12849 118-480)
chain: SQESKTTYLEDLPPPPEYELAPSKLEEEVDDVFLIRAQGLPWSCTMEDVLNFFSDCRIRNGENGIHFLLNRDGKRRGDALIEMESEQDVQKALEKHRMYMGQRYVEVYEINNEDVDALMKSLQVKSSPVVNDGVVRLRGLPYSCNEKDIVDFFAGLNIVDITFVMDYRGRRKTGEAYVQFEEPEMANQALLKHREEIGNRYIEIFPSRRNEVRTHVGSYKGKKIASFPTAKYITEPEMVFEEHEVNEDIQPMTAFESEKEIELPKEVPEKLPEAADFGTTSSLHFVHMRGLPFQANAQDIINFFAPLKPVRITMEYSSSGKATGEADVHFETHEDAVAAMLKDRSHVHHRYIELFLNSCPKGK
Take B1: the binding result is reported as “binds”.
